Results: publication PMC2905097
These are yes or no findings as the source states them, for the method shown. In cells and extracts the contact can be indirect. Some binding calls cover weakened binding; strength is not graded here.

Chains of the proteins cited; added tags and fusions are not shown.
UniProt Q7TQN4: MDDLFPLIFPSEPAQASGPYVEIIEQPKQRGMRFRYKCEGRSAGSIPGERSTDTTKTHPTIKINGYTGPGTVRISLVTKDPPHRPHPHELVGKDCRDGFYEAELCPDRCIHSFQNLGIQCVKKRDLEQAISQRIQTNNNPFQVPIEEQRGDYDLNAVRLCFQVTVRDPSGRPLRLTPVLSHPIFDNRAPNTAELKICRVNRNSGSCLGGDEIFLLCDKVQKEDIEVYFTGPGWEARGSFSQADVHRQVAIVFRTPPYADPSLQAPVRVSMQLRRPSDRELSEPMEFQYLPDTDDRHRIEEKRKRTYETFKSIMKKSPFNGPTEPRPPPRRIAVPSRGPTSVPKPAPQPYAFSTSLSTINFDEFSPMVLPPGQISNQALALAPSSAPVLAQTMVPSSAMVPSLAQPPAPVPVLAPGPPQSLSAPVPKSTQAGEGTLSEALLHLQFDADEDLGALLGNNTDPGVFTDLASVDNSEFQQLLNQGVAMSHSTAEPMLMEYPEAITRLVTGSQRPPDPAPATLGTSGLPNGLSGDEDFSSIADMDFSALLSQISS
UniProt P52631: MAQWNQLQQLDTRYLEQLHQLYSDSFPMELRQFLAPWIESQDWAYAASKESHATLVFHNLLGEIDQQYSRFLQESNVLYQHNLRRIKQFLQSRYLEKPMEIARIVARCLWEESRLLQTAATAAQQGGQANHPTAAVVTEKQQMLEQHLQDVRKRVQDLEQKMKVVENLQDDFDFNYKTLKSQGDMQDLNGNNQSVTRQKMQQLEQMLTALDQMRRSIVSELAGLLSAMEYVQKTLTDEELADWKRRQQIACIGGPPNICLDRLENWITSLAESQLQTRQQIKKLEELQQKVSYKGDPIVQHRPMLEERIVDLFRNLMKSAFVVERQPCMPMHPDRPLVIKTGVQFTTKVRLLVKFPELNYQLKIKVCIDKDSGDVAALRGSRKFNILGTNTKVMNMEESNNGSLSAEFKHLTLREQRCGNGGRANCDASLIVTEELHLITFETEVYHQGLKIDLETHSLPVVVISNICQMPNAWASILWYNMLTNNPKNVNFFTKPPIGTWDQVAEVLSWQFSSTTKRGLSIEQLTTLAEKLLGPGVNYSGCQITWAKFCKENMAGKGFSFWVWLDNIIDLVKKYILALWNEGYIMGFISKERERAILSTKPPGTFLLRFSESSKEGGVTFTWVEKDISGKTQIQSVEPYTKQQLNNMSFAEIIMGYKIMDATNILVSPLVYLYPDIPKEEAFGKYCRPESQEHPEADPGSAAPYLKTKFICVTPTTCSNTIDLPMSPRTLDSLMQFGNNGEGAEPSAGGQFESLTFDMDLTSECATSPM
UniProt P10361: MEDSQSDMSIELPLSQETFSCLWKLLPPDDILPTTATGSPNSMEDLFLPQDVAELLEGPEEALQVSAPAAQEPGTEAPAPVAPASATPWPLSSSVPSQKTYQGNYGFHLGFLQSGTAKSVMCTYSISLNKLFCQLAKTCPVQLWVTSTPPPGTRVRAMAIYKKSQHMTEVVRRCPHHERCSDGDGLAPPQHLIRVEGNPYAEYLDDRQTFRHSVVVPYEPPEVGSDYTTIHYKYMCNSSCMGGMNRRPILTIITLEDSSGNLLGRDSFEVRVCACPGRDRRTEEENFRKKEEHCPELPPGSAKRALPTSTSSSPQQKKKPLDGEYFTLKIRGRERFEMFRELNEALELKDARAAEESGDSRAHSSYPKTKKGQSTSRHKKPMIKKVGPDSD

What was measured:
[1] = biological target: NF-κB/RELA, endogenous in rat cardiac fibroblasts (rat (endogenous in primary neonatal rat cardiac fibroblasts)) (UniProt Q7TQN4); assay: condition: only cells treated with the STAT3 inhibitor S3I-201 (100 μM); co-IP; as a1, but cardiac fibroblasts treated with DFX and the STAT3 inhibitor S3I-201 (100 μM); RELA IP blotted for STAT3
[2] = biological target: NF-κB/RELA, endogenous in rat cardiac fibroblasts (rat (endogenous in primary neonatal rat cardiac fibroblasts)) (UniProt Q7TQN4); assay: co-IP; endogenous proteins in whole-cell lysates of rat cardiac fibroblasts treated with DFX (p53-RELA also kept with S3I-201, Figure 6e); RELA IP blotted for p53 and STAT3, p53 IP blotted for RELA; control IgG; protein A beads, overnight at 4°C, washed with phosphate-buffered saline
[3] = biological target: NF-κB/RELA, endogenous in rat cardiac fibroblasts (rat (endogenous in primary neonatal rat cardiac fibroblasts)) (UniProt Q7TQN4); assay: condition: only cells treated with 1 μM NFI (NF-κB activation inhibitor); co-IP; as a1, but cardiac fibroblasts treated with DFX and 1 μM NF-κB activation inhibitor (NFI, quinazoline)

| binding [1] | binding [2] | binding [3] | Substance |
| --- | --- | --- | --- |
| no binding | binds | – | STAT3, endogenous in rat cardiac fibroblasts (from UniProt P52631 1-770) |
| – | binds | no binding | p53, endogenous in rat cardiac fibroblasts (from UniProt P10361 1-391) |
